Measured values as given in patent US20050065326A1.
These are yes or no findings as the source states them, for the method shown. Some results given as binding are weak or reduced against the parent protein; the word gives no strength.

Amino acid sequences for entries named in this document (tags omitted). A change or cut given only in a name is not applied to a line headed by its entry.
UniProt Q92956: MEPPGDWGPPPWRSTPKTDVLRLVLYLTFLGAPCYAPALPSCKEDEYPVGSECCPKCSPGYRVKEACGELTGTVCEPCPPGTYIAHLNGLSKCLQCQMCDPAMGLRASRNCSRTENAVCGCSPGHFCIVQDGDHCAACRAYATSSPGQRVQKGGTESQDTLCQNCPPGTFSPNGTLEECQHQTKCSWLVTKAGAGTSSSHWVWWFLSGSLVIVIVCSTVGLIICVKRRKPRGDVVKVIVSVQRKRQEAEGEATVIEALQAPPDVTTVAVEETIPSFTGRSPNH

What was measured:
TR2 polypeptide (human) [1] = target: TR2 polypeptide (human) (UniProt Q92956); assay: phage display selection; no details given
TR2 polypeptide (human) [2] = target: TR2 polypeptide (human) (UniProt Q92956); assay: phage display selection of an scFv library on TR2 polypeptide

B1: TR01G03 (scFv)
scFv: QVQLVQSGAEVKKPGSSVKVSCKTSGGTFGNYAINWVRQAPGQGLEWLGGIIPIYGTANYGEKFHGRLTLTADKSTSTAYMELRSLRSEDTAVYYCATHTGGYNYWSFDLWGQGTLVTVSSGGGGSGGGGSGGGGSALETTLTQSPGTLSLSPGDRATLSCWASQSVGSYLAWYQQKPGQAPRLLISGASRRATGIPDRFSGSGSGTDFTLTISRLEPEDFAVYYCQQYGTSVLTFGGGTRLEIKR
- binding (TR2 polypeptide (human) [1]): binds
- binding (TR2 polypeptide (human) [2]): binds
